Experimental findings from CN101054416A are described below.

Chains of the proteins cited; added tags and fusions are not shown. Residues count along the entry.
UniProt P35613, residues 138-325: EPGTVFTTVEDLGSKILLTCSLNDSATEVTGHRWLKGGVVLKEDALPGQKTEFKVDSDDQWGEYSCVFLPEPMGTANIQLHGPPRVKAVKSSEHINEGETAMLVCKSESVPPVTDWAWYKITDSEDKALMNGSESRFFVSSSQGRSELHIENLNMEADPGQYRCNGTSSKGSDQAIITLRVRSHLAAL

Results are given in words; binding and its absence hold for the method and conditions named. Some results given as binding are weak or reduced against the parent protein; the word gives no strength.

This test has as its target HAb18G/CD147胞外区蛋白 (human) (UniProt P35613). Put plainly: indirect ELISA screening of hybridoma clones on HAb18G/CD147 extracellular region protein. In general terms: ELISA stands for enzyme-linked immunosorbent assay.

B1: 单克隆抗体HAb18GC2 (antibody, V domains shown)
VH: EVKLEESGGGLVQPGGSMKLSCVASGFTFSNFWMNWVRQSPEKGLEWVAEIRLKSNNYATHYAESVKGRFTISRDDSKSSVYLQMNNLRTEDTGIYYCTSYDYEYWGQGTLVTVSA
VL: NIVMTQSPKSMSMSVGERVTLSCKASENVGTYVSWYQQKPEQSPKLLIYGASNRYTGVPDRFTGSGSATDFTLTISSVQAEDLADYHCGQSYSYPFTFGSGTKLEIK
B1: the binding entry was “binds”.
